PMC6823245, “Positive Modulation of Angiotensin II Type 1 Receptor–Mediated Signaling by LVV–Hemorphin-7” (Frontiers in Pharmacology, 2019)
These are yes or no findings as the source states them, for the method shown. Binding seen in cells or lysates may run through a third protein. Some results given as binding are weak or reduced against the parent protein; the word gives no strength.

Tests used:
[1] = molecular target: AT1R-RlucII (angiotensin II type 1 receptor fused to Renilla luciferase) (human) (UniProt P30556); test: FRET or BRET; live HEK293 cells coexpressing Rluc-fused receptor (donor) and Venus-Gαq or yPET–β-arrestin 2 (acceptor); dose–response (30 min, 37°C, PBS) and real-time kinetics; cells treated with AngII (thrombin for PAR1), LVV–hemorphin-7 or both; coelenterazine h 5 µM; ligand-induced BRET (540/480 nm ratio minus vehicle)
[2] = molecular target: AT1R-RlucII (angiotensin II type 1 receptor fused to Renilla luciferase) (human) (UniProt P30556); test: FRET or BRET; as a1, but cells pretreated with 10 µM irbesartan (AT1R antagonist) for 15 min at 37°C before 10 nM AngII, 10 µM LVV–hemorphin-7 or both for 30 min

- binding [1]: binds
Substance: yPET–β-arrestin 2 (from UniProt P32121 1-409)
- binding [2]: no binding (condition: with 10 µM irbesartan)
